Read-outs that look alike come from different tables or passages of the source. At least one peptide structure holds a part that was inferred or is arguable (an end, a ring closure or a residue). Marks after values point to notes of the source that are not given here. Ends that are not written are not given here.
What was measured:
[1] = tested on: human peripheral blood lymphocytes; K562 cancer cells; assay: Cytotoxic activity of human peripheral blood lymphocytes against K562 cancer cells
[2] = tested on: human influenza virus A strain A/Aichi/2/68 (cerotype H3N2); format: in vivo, mice
[3] = tested on: peripheral blood lymphocytes (PBL) in healthy donors; K562 cell line; assay: PBL cytotoxicity in healthy donors, K562 targets; conditions: 17 healthy donors
[4] = tested on: interferon synthesis; format: in vivo, mice
[5] = tested on: peripheral blood lymphocytes (PBL) in cancer patients; A431; assay: PBL cytotoxicity in cancer patients, A431 targets
[6] = tested on: Lee 1/40 human influenza virus B strain; format: in vivo, mice; conditions: 25 microgram; for Mortality 10 days after virus inoculation, Number: 10 animals

HGVSGHGQHGVHG [Alloferon 1]
Concentration at which the stimulatory activity reached a plato [1]: about 0.05 nanogram/ml
Mortality 10 days after virus inoculation, % ([2]; 2.5 microgram per mouse intraperitoneally, day −1 and days 1, 2, 4, 6, 8, 10 LD50, control 70): 65%
Mortality 10 days after virus inoculation, % ([2]; 25 microgram per mouse intraperitoneally, day −1 and days 1, 2, 4, 6, 8, 10 LD50, control 70): 25* %
Mortality 10 days after virus inoculation, % ([2]; 25 microgram per mouse subcutaneously, control 65): 22* %
Positive responses coincidence: Interferon and alloferon sensitive donors ([3]; K562 or A431): 9/17 = 53%
Positive responses proportion, K562 or A531 ([3]; either target): 10/17 = 59%
Interferon titre, Arbitrary units ([4]; 2 hours): 31 ± 13.8 Arbitrary units
Interferon titre, Arbitrary units ([4]; 4 hours): 21 ± 3.7 Arbitrary units
Interferon titre, Arbitrary units ([4]; 6 h): 40.6 ± 11.4 Arbitrary units
Interferon titre, Arbitrary units ([4]; 24 h): 14.4 ± 4.3 Arbitrary units
Interferon titre, Arbitrary units ([4]; 24 hours): 71 ± 16.2 Arbitrary units
Interferon production ([4]; mouse, in vivo): stimulated the interferon production
Interferon titre ([4]; mouse, in vivo): returned to the control level
Length of the stimulatory effect on interferon ([4]; mouse, in vivo): 6 to 24 h
Time of maximum efficacy of interferon concentration growth post treatment ([4]; mouse, in vivo, ip): 24 h
Positive responses proportion, A431 ([5]; 18 cancer patients): 8/18 = 44%
Positive responses, patients with chronic and acute leucosis ([5]; cancer patients): 5 of 9
Mortality 10 days after virus inoculation, Number ([6]; virus dose 3 LD50, control 8 of 10): 0
Mortality 10 days after virus inoculation, % ([6]; virus dose 3 LD50, control 80): 0*** %
Mortality 10 days after virus inoculation, Number ([6]; virus dose 30 LD50, control 10 of 13): 2
Mortality 10 days after virus inoculation, % ([6]; virus dose 30 LD50, control 77): 20** %

Source: patent US20040138137A1, “Alloferons - immunomodulatory peptides” (Entopharm Co., Ltd., priority 1999, published 2004)
